In PMC2695266:
Results are given in words; binding and its absence hold for the method and conditions named. Some binding calls cover weakened binding; strength is not graded here. For part of these data: Where a sequence is shown, tags or fusion partners need not be part of it.

By UniProt entry, the sequences of proteins in these tests, tags left out. Residues count along the entry.
UniProt Q96DA6, residues 24-116: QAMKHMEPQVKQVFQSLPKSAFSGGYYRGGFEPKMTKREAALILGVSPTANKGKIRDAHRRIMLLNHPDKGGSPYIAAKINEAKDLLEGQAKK

Tests used:
[1] = molecular target: T1, soluble domain of yeast Tim16/Pam16 (Saccharomyces cerevisiae) (UniProt P42949); assay: cross-linking; purified complexes, 1 mM DSS, room temperature, 20 mM Na-Hepes pH 7.4, 200 mM NaCl, 100 mM KCl, 1 mM MgCl2, 15 uM protein; SDS-PAGE on 16% gels; both purified
T1 sequence: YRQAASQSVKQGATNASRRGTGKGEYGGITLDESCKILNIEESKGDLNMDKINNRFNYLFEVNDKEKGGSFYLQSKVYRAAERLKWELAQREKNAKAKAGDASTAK

[2] = molecular target: T2, soluble domain of human Tim16/Pam16 (human) (UniProt Q9Y3D7); assay: as above
T2 sequence: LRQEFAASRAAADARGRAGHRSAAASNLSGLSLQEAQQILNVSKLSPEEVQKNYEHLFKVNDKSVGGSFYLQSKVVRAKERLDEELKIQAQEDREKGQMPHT

[3] = molecular target: T1, soluble domain of yeast Tim16/Pam16 (Saccharomyces cerevisiae); assay: co-purification (Ni-agarose, then gel filtration); co-expressed in bacteria; only yTim16/Pam16s had an octahistidine tag; Ni-agarose column, tag cleaved with TEV protease, gel filtration; SDS-PAGE with Coomassie blue
[4] = molecular target: T2, soluble domain of human Tim16/Pam16 (human); assay: co-purification (Ni-agarose, then gel filtration); same strategy as for hTim14/Pam18s-yTim16/Pam16s; data not shown

Measured: binding

soluble domain of human Tim14/Pam18 (from UniProt Q96DA6 24-116) (domain or fragment)
binds: all assays above

B1: soluble domain of yeast Tim14/Pam18 (domain or fragment, UniProt Q07914 84-168)
chain: KSISKGLNGGKSTTAFLKGGFDPKMNSKEALQILNLTENTLTKKKLKEVHRKIMLANHPDKGGSPFLATKINEAKDFLEKRGISK
binds: [2] | [4]
